# Data: PubChem BioAssay AID540256 (National Center for Advancing Translational Sciences (NCATS), 2011)
# Hit rate of the full screen: of about 300,000 compounds, about 3,700 (1.2%) were called active. Inconclusive results, whose numbers are uncertain, are shown with a selection of clear calls. Calls come from the whole dose curve; tested in HEK293 cells. A potency beside an inconclusive call is a rough fit, not a confirmed value.
# Assay: qHTS for Inhibitors of binding or entry into cells for Lassa Virus; note: nearly all actives have a fitted effect of over 50% in size
# Conditions: Lassa virus pseudotype entry inhibition, cell reporter; activity change, negative = inhibition: at 37.9 µM (top of the series) unless noted
# % is set by controls: 0 for no effect and ±100 for the full control effect; potency is the fitted concentration of half-maximal effect.
SMILES,"activity change, negative = inhibition",Potency
O=C1CC2(CCN(C(=O)c3cccc(Cl)c3)CC2)Oc2ccccc21,inactive: 11.7% [at 46.1 µM],–
COc1ccc(C)cc1NC(=O)NCc1ccco1,inactive: 9.64%,–
Cc1nn(Cc2cccc(C(=O)Nc3ccn(Cc4ccccc4F)n3)c2)c(C)c1[N+](=O)[O-],inactive: 12.7%,–
COc1ccccc1CN(Cc1ccco1)c1cnc(S(C)(=O)=O)nc1C(=O)Nc1cc(C)ccc1C,–,"inconclusive: 35.5 µM [inhibitor, single point]"
CC(C)(C)c1ccc(-c2nc3cc(NC(=O)c4cccc(Br)c4)ccc3o2)cc1,inactive: 9.74% [at 46.1 µM],–
Cc1cc(OCCCCNC(C)C)cc(C(C)C)c1,–,"inconclusive: 23.1 µM [inhibitor, single point]"
CCCCC(C(=O)NC1CCCC1)N(Cc1ccccc1)C(=O)c1snc(C(N)=O)c1N (stereo not drawn),–,"inconclusive: 25.1 µM [inhibitor, partial curve, poor fit]"
COc1ccccc1CN(C)CC(=O)Nc1cccc2ccccc12,–,"inconclusive: 35.5 µM [inhibitor, single point]"
COc1cnn(-c2ccccc2)c(=O)c1OC,–,"inconclusive: 0.398 µM [activator, full curve]"
O=C(N/N=C/c1ccc(-c2cccc([N+](=O)[O-])c2)o1)c1ccccc1O,–,"inconclusive: 14.1 µM [inhibitor, partial curve, poor fit]"
CCOC(=O)N1CCN(C(=O)c2cn(C)c(=O)c3c2c2ccccc2n3C)CC1,–,"inconclusive: 32.6 µM [inhibitor, single point]"
Cc1ccc2c(c1)nnn2C1CCN(CC(=O)c2ccc(Cl)cc2)CC1,inactive: 6.21%,–
NC(=O)c1cc2ccc(O)cc2oc1=NCc1ccccc1,–,"inconclusive: 9.2 µM [inhibitor, partial curve, poor fit]"
COC(=O)/C(N=Nc1cccc(C(F)(F)F)c1)=C(\C)O,–,"inconclusive: 0.562 µM [activator, full curve]"
CC(C)CC1c2[nH]c3ccccc3c2CCN1C(=O)C1CCOCC1 (stereo not drawn),–,"inconclusive: 10 µM [inhibitor, partial curve, poor fit]"
Cc1ccc(SCC(=O)OCC(=O)N(CC(C)C)c2c(N)n(Cc3ccccc3)c(=O)[nH]c2=O)cc1C,–,"inconclusive: 35.5 µM [inhibitor, single point]"
O=C(Cn1c(=O)n(Cc2ccc3c(c2)OCO3)c(=O)c2oc3ccccc3c21)Nc1ccc(F)cc1,inactive: 19.3% [at 46.1 µM],–
C[C@H]1CCC/C=C/[C@@H]2C[C@H](O)C[C@H]2[C@H](O)[C@H](S(=O)c2ccc(O)cc2)CC(=O)O1 (stereo partly drawn),–,active: 1.26 µM
COc1ccc(NC(=O)CSc2nc3ccccc3c(=O)n2CCCN2CCCCC2)c(OC)c1,inactive: -27%,–
COC(=O)c1cc(NC(=O)COC(=O)CN2C(=O)C3CC=CCC3C2=O)cc(C(=O)OC)c1 (stereo not drawn),–,"inconclusive: 31.6 µM [inhibitor, partial curve, poor fit]"
Cc1ccc(-n2c(=O)[nH]c3c(C(N)=O)nc(-c4ccc(C)o4)nc32)cc1,–,"inconclusive: 35.5 µM [inhibitor, single point]"
Cc1cc(NC(=O)CCC(=O)N(Cc2cccnc2)C(C(=O)NC(C)(C)C)c2ccccc2Cl)no1 (stereo not drawn),–,"inconclusive: 1.26 µM [activator, partial curve, poor fit]"

# In another format: 3 of the compounds above.
SMILES	activity change, negative = inhibition	Potency
COc1ccccc1CN(Cc1ccco1)c1cnc(S(C)(=O)=O)nc1C(=O)Nc1cc(C)ccc1C	–	inconclusive: 35.5 µM [inhibitor, single point]
COC(=O)/C(N=Nc1cccc(C(F)(F)F)c1)=C(\C)O	–	inconclusive: 0.562 µM [activator, full curve]
COC(=O)c1cc(NC(=O)COC(=O)CN2C(=O)C3CC=CCC3C2=O)cc(C(=O)OC)c1 (stereo not drawn)	–	inconclusive: 31.6 µM [inhibitor, partial curve, poor fit]

# Further compounds

SMILES,"activity change, negative = inhibition",Potency
COC(=O)C1CCCN1C(=O)C12CC3CC(CC(C3)C1)C2 (stereo not drawn),inactive: -1.28%,–
CCN(CC)CCN(C(=O)CCS(=O)(=O)c1ccccc1)c1nc2cc3c(cc2s1)OCO3,–,"inconclusive: 25.1 µM [inhibitor, single point]"
Cc1ccc(N2C(=O)NC3(CCCCC3)C2=O)cc1,–,"inconclusive: 14.1 µM [activator, partial curve, poor fit]"
CC(/C=N/NC(=O)Cn1nccc1C)=C\c1ccc(C(C)C)cc1,inactive: 3.35%,–
Cc1cccc(NC(=O)C(=O)NCC2CCCO2)c1 (stereo not drawn),inactive: -17.2%,–
Cc1ccc(NC(=O)c2ccc(NCCN)c([N+](=O)[O-])c2)cc1Cl,inactive: 13.9%,–
CCCCNS(=O)(=O)c1cccc(S(=O)(=O)N2CCCC2)c1,–,"inconclusive: 1.41 µM [activator, single point]"
CCOC(=O)CC1C(=O)NCCN1S(=O)(=O)c1ccccc1 (stereo not drawn),inactive: 2.79% [at 46.1 µM],–
C=CCn1c(SCc2csc(C)n2)nc2sc3c(c2c1=O)CCCCC3,–,"inconclusive: 23.1 µM [inhibitor, single point]"
Cc1ccc(S(=O)(=O)Nc2cc3c4c(c2)CCC(=O)N4CCC3)cc1,–,"inconclusive: 35.5 µM [inhibitor, single point]"
Cc1ccc(S(=O)(=O)N2CCOCC2)cc1C(=O)N1CCCC1,inactive: 2.15% [at 46.1 µM],–
COc1ccc(NS(=O)(=O)c2ccc3c(c2)CCN3C(=O)CCC(=O)O)cc1OC,–,"inconclusive: 1.58 µM [activator, partial curve, poor fit]"
CC(=O)NC(c1ccc(C)cc1)c1cc([N+](=O)[O-])c2cccnc2c1O (stereo not drawn),–,"inconclusive: 17.8 µM [inhibitor, single point]"
Cc1nnc(-c2cccc(Br)c2)c2cn(-c3ccccc3)nc12,–,"inconclusive: 0.164 µM [inhibitor, full curve, poor fit]"
O=C(NC(Cc1ccccc1)c1nc2ccccc2[nH]1)c1ccc(Cl)c([N+](=O)[O-])c1 (stereo not drawn),inactive: -20.4%,–
COC(=O)c1ccccc1NC(=O)c1cc2nc(-c3ccc(OC)cc3)cc(C(F)(F)F)n2n1,inactive: 27.4% [at 46.1 µM],–
Cc1ccc(NC(=O)c2ccc(NC(=O)N3CCSc4nc(C)cc(C)c43)cc2)c(Cl)c1,–,"inconclusive: 35.5 µM [activator, single point]"
OC(CN1CCCCC1)Cn1c2ccc(Cl)cc2c2cc(Cl)ccc21 (stereo not drawn),inactive: -29.3%,–
CCc1ccc2[nH]c(=O)c(CN(CCCN3CCOCC3)C(=O)Nc3ccc(Cl)cc3)cc2c1,–,"inconclusive: 35.5 µM [inhibitor, single point]"
O=C(c1ccco1)[C@@H]1[C@@H]2C(=O)N(c3ccc(F)cc3)C(=O)[C@@H]2[C@H]2C=Cc3ccccc3N21,–,"inconclusive: 2.06 µM [activator, partial curve, poor fit]"
COCCNC(=O)NC(=O)COC(=O)c1cccn1C,inactive: -21%,–
